No constants are given. Whether binding was seen depends on the method and setting. In cells and extracts the contact can be indirect. Some entries that bind do so weakly or less than the wild type. For some of these results: Tags and fused reporters may be left off the sequences shown.
Legend:
Assay in all cases: co-IP; Flag-labeled IRS or truncated IRS proteins co-transfected with HA-labeled ERα or its truncated proteins in HEK293 cells for 30 h, 10 µM MG132 for 1 h, TNE buffer, anti-Flag antibody overnight at 4 °C, Dynabeads Protein G, HA detected by Western blotting; also with E2 treatment
[1] = target: Flag-labeled IRS1 100-300 domain (UniProt P35569)
[2] = target: T1, Flag-labeled insulin receptor substrate 2 (IRS2) (UniProt P81122)
T1 sequence: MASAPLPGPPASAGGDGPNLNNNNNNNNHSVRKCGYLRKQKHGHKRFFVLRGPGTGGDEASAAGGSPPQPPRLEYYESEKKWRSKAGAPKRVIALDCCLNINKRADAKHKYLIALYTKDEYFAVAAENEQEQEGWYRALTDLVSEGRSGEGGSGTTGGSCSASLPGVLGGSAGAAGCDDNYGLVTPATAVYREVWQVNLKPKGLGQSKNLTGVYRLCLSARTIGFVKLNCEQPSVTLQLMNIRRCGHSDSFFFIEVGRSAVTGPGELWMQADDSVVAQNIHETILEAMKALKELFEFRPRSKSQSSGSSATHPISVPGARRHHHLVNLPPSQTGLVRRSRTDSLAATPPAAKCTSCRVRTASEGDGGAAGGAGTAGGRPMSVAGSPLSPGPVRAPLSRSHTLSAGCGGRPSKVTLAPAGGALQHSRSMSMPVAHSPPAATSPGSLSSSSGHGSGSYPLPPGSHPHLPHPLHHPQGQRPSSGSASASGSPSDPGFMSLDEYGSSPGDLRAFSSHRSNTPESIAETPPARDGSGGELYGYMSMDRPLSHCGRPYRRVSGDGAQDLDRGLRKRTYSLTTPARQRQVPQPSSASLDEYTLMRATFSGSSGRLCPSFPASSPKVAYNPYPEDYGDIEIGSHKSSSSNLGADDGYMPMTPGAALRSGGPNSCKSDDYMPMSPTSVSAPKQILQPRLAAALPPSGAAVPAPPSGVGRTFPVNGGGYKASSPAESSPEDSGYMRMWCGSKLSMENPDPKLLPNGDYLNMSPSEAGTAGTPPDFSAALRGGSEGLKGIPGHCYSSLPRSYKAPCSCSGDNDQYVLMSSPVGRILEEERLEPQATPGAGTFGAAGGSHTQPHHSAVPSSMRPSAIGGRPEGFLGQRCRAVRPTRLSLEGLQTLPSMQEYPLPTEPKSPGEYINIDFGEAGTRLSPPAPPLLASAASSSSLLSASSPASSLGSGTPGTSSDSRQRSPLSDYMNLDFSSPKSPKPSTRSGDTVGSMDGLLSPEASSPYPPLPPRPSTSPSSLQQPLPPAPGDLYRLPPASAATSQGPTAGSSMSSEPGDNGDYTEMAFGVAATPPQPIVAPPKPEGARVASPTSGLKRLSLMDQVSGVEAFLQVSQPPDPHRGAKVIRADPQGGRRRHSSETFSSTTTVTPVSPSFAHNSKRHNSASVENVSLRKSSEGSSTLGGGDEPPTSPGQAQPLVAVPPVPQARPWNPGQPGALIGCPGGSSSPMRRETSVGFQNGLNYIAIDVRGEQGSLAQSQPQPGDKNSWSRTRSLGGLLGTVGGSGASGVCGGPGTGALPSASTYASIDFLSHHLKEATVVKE

Chains of the proteins cited; added tags and fusions are not shown. Lines headed by an entry give the natural chain unless they say otherwise; changes in a name come on top. Residues count along the entry.
UniProt P35569: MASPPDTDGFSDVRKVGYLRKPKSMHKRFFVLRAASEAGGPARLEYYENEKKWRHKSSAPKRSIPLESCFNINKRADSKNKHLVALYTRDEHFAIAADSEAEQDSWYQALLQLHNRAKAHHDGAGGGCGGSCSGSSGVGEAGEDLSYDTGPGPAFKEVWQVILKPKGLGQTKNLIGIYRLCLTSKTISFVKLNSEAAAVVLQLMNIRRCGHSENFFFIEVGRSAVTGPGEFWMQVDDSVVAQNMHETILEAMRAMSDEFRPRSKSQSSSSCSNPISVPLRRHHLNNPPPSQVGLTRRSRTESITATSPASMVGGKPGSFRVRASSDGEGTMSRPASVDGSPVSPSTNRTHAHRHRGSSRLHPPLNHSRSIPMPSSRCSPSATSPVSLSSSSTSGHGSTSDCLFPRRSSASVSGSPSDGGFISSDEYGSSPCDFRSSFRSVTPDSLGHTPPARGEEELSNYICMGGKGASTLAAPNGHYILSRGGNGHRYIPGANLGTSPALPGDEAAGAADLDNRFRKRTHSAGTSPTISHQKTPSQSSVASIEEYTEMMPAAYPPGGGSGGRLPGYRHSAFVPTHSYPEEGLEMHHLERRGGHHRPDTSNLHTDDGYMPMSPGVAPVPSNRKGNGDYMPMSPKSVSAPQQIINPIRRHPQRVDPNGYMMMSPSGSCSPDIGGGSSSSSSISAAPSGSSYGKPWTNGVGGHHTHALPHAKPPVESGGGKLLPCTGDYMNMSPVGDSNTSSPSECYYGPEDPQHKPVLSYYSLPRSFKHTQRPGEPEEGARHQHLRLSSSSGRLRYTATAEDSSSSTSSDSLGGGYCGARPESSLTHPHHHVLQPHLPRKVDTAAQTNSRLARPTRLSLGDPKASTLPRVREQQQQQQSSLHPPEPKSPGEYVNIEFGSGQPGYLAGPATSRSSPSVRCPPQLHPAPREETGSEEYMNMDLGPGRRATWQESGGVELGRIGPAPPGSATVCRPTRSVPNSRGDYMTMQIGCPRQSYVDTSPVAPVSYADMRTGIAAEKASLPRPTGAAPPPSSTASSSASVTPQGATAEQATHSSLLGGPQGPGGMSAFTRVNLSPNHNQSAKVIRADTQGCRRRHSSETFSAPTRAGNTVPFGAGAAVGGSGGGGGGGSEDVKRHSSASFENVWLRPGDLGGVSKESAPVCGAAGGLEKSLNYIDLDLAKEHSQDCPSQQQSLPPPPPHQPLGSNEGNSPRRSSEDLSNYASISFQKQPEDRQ
Flag-labeled IRS1 100-300 domain: residues 100-300 of P35569
UniProt P03372: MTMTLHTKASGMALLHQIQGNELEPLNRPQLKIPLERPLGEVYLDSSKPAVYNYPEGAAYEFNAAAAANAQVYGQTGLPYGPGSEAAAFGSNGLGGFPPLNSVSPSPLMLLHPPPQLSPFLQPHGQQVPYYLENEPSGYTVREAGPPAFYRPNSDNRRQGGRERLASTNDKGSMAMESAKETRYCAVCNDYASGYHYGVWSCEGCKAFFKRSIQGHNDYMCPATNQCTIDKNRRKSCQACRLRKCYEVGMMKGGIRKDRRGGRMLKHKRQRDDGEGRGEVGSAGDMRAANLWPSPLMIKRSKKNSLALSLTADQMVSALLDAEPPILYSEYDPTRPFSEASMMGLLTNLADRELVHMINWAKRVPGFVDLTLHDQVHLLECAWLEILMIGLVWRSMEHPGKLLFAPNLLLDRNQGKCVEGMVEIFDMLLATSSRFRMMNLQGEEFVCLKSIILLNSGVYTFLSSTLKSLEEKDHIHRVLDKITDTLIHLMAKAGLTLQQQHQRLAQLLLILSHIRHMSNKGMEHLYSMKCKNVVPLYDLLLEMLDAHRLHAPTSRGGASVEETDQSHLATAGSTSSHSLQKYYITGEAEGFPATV

[3] = target: Flag-labeled insulin receptor substrate 1 (IRS1) (UniProt P35569)

Substance	binding [1]	binding [2]	binding [3]
HA-labeled ERα 1-280 domain (AF1 + DBD) (from UniProt P03372 1-280) (domain or fragment)	binds		
HA-labeled estrogen receptor α (ERα) (from UniProt P03372 1-595)	binds	binds	binds

Reference: article PMC11035554
